This is one part of the list.
Experiments:
Experiment in all cases: log2 fold change, soluble protein after heating vs DMSO (PISA); higher = thermal stabilisation; K562 lysate, 10 uM; active = over 0.2 and 3.5 SD of the protein, either way, in both replicates (recomputed)
vemurafenib = compound: CCCS(=O)(=O)Nc1ccc(F)c(C(=O)c2c[nH]c3ncc(-c4ccc(Cl)cc4)cc23)c1F [vemurafenib]
Summary of the method: (§1)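 K562 pellets were dounce-homogenised in PBS pH 7.4 containing 1 mM MgCl2, and the crude extract, at 1 mg/mL protein, was exposed to 10 μM compound for 30 min. Aliquots were heated for 3 min across 48°C-58°C, pooled, brought to 0.5% NP-40 at 4°C and spun at 21,000xg for 90 min, with the supernatant taken as soluble protein. TMTpro 16plex LC-MS/MS with equalised channel sums quantified that protein. Values are log-two fold changes in thermal stability relative to solvent controls, taken from duplicates.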

Sequences of proteins named here, by UniProt entry; tags and fusion partners are left off. A change or cut given only in a name is not applied to a line headed by its entry.
UniProt P11277, whole entry, looked up: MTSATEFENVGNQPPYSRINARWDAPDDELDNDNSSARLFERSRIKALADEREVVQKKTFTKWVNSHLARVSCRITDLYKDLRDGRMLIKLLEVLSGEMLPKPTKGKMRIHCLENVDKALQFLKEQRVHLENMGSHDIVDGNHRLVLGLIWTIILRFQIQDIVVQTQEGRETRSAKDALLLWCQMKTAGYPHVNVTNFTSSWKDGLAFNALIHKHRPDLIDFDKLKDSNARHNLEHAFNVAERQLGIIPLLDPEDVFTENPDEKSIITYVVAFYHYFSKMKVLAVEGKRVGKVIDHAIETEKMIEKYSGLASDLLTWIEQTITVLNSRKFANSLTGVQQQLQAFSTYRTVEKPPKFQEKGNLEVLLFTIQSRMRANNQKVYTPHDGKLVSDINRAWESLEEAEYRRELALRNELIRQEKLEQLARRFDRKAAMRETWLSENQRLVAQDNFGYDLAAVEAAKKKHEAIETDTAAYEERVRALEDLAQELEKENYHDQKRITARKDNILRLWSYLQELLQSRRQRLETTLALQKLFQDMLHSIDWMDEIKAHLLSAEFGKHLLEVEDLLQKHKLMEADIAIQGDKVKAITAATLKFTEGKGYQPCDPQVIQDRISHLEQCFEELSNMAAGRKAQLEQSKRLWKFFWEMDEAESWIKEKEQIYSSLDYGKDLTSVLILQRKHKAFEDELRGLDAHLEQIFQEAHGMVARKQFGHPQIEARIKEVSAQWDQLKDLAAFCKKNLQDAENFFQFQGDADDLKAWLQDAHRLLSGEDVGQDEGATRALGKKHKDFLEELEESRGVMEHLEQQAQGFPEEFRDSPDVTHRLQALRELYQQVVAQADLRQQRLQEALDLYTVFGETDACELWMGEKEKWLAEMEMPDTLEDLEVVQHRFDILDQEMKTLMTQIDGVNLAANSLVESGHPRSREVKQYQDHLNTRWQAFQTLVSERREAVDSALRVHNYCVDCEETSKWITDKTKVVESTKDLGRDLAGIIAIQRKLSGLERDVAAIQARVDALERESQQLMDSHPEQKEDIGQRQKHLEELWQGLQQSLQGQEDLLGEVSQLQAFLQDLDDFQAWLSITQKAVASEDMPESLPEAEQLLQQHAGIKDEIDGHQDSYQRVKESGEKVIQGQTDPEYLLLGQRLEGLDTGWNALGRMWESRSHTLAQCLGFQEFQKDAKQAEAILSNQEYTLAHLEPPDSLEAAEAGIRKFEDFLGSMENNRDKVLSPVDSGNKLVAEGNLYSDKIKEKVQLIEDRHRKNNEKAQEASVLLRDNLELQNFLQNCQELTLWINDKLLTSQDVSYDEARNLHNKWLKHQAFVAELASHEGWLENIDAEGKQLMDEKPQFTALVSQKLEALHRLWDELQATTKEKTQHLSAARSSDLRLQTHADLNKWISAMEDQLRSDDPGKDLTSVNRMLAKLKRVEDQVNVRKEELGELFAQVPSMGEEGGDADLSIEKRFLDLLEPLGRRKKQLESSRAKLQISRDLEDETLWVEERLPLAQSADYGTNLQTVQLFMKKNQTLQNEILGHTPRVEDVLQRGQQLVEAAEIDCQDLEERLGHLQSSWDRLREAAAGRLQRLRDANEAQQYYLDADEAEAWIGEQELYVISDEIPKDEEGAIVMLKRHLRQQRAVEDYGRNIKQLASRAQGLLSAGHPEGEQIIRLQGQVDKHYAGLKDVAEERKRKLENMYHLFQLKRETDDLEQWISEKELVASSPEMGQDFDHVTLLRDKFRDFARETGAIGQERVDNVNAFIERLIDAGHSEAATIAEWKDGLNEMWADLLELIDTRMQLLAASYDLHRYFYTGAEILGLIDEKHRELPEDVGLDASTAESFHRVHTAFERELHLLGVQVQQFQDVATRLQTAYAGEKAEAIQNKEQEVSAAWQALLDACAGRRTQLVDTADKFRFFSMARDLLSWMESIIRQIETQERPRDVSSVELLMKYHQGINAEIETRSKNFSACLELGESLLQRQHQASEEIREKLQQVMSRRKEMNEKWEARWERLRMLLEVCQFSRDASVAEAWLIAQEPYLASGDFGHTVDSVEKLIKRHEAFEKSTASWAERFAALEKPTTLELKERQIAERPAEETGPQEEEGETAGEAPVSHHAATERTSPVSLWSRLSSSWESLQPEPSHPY
UniProt P09132: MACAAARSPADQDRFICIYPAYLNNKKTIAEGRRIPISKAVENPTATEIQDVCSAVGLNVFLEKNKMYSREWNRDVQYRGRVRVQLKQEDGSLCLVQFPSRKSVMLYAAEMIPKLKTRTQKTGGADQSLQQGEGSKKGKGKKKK
UniProt P19623: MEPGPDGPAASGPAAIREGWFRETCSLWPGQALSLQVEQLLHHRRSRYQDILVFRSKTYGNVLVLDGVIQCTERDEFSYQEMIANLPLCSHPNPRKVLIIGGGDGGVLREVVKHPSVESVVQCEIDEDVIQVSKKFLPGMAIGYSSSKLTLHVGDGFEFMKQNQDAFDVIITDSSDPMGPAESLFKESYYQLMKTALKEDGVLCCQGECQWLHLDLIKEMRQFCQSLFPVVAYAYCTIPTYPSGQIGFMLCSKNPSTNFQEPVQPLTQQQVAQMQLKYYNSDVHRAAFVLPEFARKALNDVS
UniProt Q96T58, whole entry, looked up: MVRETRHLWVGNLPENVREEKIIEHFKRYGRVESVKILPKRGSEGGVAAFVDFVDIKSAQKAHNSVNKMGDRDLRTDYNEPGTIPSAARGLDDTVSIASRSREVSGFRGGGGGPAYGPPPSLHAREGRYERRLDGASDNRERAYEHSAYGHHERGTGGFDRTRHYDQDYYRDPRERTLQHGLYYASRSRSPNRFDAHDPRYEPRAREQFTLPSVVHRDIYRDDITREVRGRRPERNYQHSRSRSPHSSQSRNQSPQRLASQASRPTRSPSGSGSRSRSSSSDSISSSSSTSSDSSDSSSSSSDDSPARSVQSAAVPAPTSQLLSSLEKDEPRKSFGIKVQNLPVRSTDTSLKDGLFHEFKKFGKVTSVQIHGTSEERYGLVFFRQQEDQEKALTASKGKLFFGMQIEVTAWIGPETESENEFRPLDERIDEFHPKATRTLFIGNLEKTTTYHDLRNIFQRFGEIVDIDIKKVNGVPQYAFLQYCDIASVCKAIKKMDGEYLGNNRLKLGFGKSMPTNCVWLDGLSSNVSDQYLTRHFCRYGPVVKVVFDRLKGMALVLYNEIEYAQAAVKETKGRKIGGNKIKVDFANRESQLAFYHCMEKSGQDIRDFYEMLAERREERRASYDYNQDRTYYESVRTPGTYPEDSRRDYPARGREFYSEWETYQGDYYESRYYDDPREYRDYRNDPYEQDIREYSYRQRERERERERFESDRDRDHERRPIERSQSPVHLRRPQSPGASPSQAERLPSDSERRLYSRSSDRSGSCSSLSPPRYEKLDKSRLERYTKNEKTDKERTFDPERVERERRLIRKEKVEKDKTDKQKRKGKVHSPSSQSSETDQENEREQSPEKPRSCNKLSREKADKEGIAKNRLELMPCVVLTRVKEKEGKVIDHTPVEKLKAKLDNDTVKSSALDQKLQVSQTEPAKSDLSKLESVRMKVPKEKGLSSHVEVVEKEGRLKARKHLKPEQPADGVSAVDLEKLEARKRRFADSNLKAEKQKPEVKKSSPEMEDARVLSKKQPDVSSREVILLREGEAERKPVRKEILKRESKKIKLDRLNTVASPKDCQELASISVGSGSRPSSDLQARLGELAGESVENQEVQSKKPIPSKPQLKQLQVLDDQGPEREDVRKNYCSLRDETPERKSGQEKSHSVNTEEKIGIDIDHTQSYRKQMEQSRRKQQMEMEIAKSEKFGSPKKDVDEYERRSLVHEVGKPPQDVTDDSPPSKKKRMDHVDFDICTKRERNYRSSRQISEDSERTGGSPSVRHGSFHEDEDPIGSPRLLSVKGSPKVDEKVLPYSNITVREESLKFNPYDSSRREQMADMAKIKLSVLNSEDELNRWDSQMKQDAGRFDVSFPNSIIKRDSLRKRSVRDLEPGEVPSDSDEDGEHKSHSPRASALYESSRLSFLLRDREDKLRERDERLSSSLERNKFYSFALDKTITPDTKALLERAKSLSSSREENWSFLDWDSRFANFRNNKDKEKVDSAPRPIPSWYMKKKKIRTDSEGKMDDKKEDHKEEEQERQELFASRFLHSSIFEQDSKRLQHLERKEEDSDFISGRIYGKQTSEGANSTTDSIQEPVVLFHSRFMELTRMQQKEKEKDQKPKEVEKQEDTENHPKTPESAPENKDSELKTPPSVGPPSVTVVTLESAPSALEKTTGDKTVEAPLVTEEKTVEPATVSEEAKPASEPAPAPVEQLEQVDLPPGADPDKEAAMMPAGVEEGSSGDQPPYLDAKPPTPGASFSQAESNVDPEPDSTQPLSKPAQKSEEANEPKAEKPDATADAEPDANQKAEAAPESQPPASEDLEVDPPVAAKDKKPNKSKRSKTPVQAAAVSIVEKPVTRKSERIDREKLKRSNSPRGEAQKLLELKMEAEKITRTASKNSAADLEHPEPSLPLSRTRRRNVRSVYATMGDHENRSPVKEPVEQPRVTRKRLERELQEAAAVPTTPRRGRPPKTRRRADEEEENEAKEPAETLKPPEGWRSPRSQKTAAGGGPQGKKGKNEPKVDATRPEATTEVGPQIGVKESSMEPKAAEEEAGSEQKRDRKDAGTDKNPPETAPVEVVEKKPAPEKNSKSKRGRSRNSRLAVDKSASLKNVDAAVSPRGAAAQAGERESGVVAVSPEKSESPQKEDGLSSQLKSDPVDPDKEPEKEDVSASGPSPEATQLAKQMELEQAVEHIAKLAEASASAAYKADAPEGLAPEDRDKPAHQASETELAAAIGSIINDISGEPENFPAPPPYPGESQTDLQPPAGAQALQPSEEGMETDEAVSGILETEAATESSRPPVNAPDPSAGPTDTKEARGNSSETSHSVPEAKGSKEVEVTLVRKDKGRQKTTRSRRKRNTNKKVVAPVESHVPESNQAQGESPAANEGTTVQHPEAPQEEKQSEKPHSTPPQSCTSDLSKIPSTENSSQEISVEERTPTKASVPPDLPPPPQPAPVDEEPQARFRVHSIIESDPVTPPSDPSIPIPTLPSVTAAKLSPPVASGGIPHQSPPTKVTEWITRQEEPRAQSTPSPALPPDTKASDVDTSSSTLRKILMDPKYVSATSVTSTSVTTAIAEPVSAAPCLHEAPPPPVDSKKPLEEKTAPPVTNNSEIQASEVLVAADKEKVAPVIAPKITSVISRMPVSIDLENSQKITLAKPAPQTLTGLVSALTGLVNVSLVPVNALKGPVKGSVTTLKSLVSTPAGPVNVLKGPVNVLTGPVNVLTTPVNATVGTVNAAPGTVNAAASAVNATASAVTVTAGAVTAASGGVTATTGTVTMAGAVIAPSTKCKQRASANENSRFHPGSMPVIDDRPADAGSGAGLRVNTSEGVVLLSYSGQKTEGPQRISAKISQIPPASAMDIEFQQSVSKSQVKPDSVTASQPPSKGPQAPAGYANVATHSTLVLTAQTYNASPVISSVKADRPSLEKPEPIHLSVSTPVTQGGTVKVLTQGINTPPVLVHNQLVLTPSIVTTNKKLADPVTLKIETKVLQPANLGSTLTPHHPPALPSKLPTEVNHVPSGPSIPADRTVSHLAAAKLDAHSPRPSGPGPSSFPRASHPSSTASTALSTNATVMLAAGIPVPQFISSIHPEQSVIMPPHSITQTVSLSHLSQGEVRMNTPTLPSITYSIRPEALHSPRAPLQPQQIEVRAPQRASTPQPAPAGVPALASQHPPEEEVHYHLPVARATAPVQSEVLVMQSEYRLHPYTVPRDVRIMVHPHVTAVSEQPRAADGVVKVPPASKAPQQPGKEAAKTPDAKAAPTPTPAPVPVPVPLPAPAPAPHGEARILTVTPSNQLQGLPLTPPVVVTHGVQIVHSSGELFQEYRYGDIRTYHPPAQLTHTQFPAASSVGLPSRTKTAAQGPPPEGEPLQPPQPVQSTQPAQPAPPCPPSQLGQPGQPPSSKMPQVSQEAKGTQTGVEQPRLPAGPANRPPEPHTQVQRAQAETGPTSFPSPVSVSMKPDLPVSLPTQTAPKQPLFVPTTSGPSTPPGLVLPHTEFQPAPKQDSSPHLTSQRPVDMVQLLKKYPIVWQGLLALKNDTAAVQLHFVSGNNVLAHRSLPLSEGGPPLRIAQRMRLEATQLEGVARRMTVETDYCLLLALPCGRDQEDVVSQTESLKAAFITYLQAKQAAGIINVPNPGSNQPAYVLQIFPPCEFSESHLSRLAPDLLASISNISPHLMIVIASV
UniProt Q16629: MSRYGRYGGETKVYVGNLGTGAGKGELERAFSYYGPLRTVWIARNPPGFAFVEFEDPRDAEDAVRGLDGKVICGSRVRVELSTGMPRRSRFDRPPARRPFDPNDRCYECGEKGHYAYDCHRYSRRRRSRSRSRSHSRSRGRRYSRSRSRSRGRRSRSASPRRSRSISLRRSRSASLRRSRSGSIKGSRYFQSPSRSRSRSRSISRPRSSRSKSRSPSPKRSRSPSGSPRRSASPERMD

[1] = compound: CCCS(=O)(=O)Nc1ccc(F)c(C(=O)c2c[nH]c3ncc(Cl)cc23)c1F
Summary of the method: as §1

barasertib = compound: CCN(CCCOc1ccc2c(Nc3cc(CC(=O)Nc4cccc(F)c4)[nH]n3)ncnc2c1)CCOP(=O)(O)O [barasertib]
Summary of the method: as §1

[2] = compound: CC[C@@H]1C(=O)N(C)c2cnc(Nc3ccc(C(=O)NC4CCN(C)CC4)cc3OC)nc2N1C1CCCC1
Summary of the method: as §1

volasertib = compound: CC[C@@H]1C(=O)N(C)c2cnc(Nc3ccc(C(=O)N[C@H]4CC[C@H](N5CCN(CC6CC6)CC5)CC4)cc3OC)nc2N1C(C)C [volasertib]
Summary of the method: as §1

[3] = compound: CCn1c(C(=O)N(C2CC2)C2CC2)cc2c3c(ncn3C)c(Nc3cc(C)n(C)n3)nc21
Summary of the method: as §1

[4] = compound: CCn1cc(-c2ccnc3[nH]c(-c4cccc(CN(C)C)c4)cc23)c(-c2ccc(NC(=O)N(C)C)cc2)n1
Summary of the method: as §1

[5] = compound: CN1CCC(CNc2ccc3ncc(-c4cccc(OC(F)(F)F)c4)n3n2)CC1
Summary of the method: as §1

saracatinib = compound: CN1CCN(CCOc2cc(OC3CCOCC3)c3c(Nc4c(Cl)ccc5c4OCO5)ncnc3c2)CC1 [saracatinib]
Summary of the method: as §1

sotrastaurin = compound: CN1CCN(c2nc(C3=C(c4c[nH]c5ccccc45)C(=O)NC3=O)c3ccccc3n2)CC1 [sotrastaurin]
Summary of the method: as §1

alvocidib = compound: CN1CC[C@H](c2c(O)cc(O)c3c(=O)cc(-c4ccccc4Cl)oc23)[C@H](O)C1 [alvocidib]
Summary of the method: as §1

Tubastatin A = compound: CN1CCc2c(c3ccccc3n2Cc2ccc(C(=O)NO)cc2)C1 [Tubastatin A]
Summary of the method: as §1

[6] = compound: CNC(=O)C1=CC=CC=C1NC2=NC(=NC=C2Cl)NC3=C(C=C(C=C3)N4CCOCC4)OC
Summary of the method: as §1

defactinib = compound: CNC(=O)c1ccc(Nc2ncc(C(F)(F)F)c(NCc3nccnc3N(C)S(C)(=O)=O)n2)cc1 [defactinib]
Summary of the method: as §1

[7] = compound: CNc1nc(-c2ccc3c(N)n[nH]c3c2)cc(N2C[C@@H](C(=O)NC3CCCCC3)CC[C@H]2C)n1
Summary of the method: as §1

encorafenib = compound: COC(=O)N[C@@H](C)CNc1nccc(-c2cn(C(C)C)nc2-c2cc(Cl)cc(NS(C)(=O)=O)c2F)n1 [encorafenib]
Summary of the method: as §1

[8] = compound: COC(=O)[C@H](CCSC)NC(=O)C1=C(C=C(C=C1)NC[C@H](CS)N)C2=CC=CC=C2
Summary of the method: as §1

alisertib = compound: COc1cc(Nc2ncc3c(n2)-c2ccc(Cl)cc2C(c2c(F)cccc2OC)=NC3)ccc1C(=O)O [alisertib]
Summary of the method: as §1

[9] = compound: COc1cc2nc(-c3cc(F)ccc3O)nc(N[C@@H]3CNC[C@H]3C(C)(C)O)c2cc1OC
Summary of the method: as §1

gefitinib = compound: COc1cc2ncnc(Nc3ccc(F)c(Cl)c3)c2cc1OCCCN1CCOCC1 [gefitinib]
Summary of the method: as §1

Measured: log2 fold change

SRRM2 (UniProt Q9UQ35)
inactive: vemurafenib 0.01 | [1] -0.015 | barasertib -0.015 | [2] 0.056 | volasertib 0.015 | [3] -0.013 | [4] -0.043 | [5] 0.04 | saracatinib -0.002 | sotrastaurin 0.011 | alvocidib -0.124 | Tubastatin A 0.03 | [6] 0.011 | defactinib -0.027 | [7] 0.064 | encorafenib 0.053 | [8] 0.007 | alisertib 0.002 | [9] 0.014 | gefitinib -0.009

SRF (UniProt P11831)
inactive: vemurafenib 0.029 | [1] 0.027 | barasertib 0.155 | [2] 0.069 | volasertib 0.039 | [3] -0.111 | [4] -0.029 | [5] -0.041 | saracatinib 0.043 | sotrastaurin 0.02 | alvocidib 0.077 | Tubastatin A 0.038 | [6] 0.036 | defactinib 0.099 | [7] -0.02 | encorafenib 0.159 | [8] 0.096 | alisertib -0.069 | [9] -0.036 | gefitinib -0.089

SPIN1 (UniProt Q9Y657)
inactive: vemurafenib 0.032 | [1] 0.027 | barasertib 0.066 | [2] 0.036 | volasertib -0.082 | [3] -0.028 | [4] 0.053 | [5] 0 | saracatinib 0.062 | sotrastaurin -0.073 | alvocidib -0.072 | Tubastatin A 0.018 | [6] -0.022 | defactinib 0.048 | [7] 0.021 | encorafenib 0.04 | [8] 0.022 | alisertib 0.144 | [9] 0.092 | gefitinib -0.082

SRPK2 isoform 2 (UniProt P78362)
inactive: vemurafenib 0.009 | [1] 0.022 | barasertib 0 | [2] 0.022 | volasertib -0.019 | [3] 0.01 | [4] -0.115 | [5] 0.054 | saracatinib -0.014 | sotrastaurin 0.049 | alvocidib 0.132 | Tubastatin A -0.118 | [6] 0.132 | defactinib 0.087 | [7] 0.029 | encorafenib 0.024 | [8] -0.007 | alisertib 0.01 | [9] 0.015 | gefitinib 0.02

SRSF10 (UniProt O75494)
inactive: vemurafenib 0.017 | [1] -0.003 | barasertib -0.06 | [2] -0.049 | volasertib -0.065 | [3] 0.035 | [4] 0.212 | [5] 0.001 | saracatinib -0.043 | sotrastaurin 0.014 | alvocidib -0.02 | Tubastatin A -0.076 | [6] -0.13 | defactinib -0.06 | [7] -0.051 | encorafenib 0.006 | [8] -0.064 | alisertib 0.116 | [9] 0.051 | gefitinib -0.014

SPTBN2 (UniProt O15020)
inactive: vemurafenib 0.001 | [1] -0.001 | barasertib 0.032 | [2] -0.008 | volasertib -0.015 | [3] 0.033 | [4] -0.044 | [5] 0.03 | saracatinib 0.002 | sotrastaurin -0.013 | alvocidib 0.019 | Tubastatin A -0.054 | [6] -0.01 | defactinib -0.004 | [7] -0.041 | encorafenib 0.003 | [8] 0.036 | alisertib -0.003 | [9] 0.023 | gefitinib -0.024

SPTB isoform 2 (UniProt P11277)
inactive: vemurafenib 0.007 | [1] 0.004 | barasertib 0.025 | [2] -0.018 | volasertib -0.057 | [3] 0.022 | [4] -0.049 | [5] -0.063 | saracatinib -0.012 | sotrastaurin 0.024 | alvocidib 0.001 | Tubastatin A -0.086 | [6] -0.033 | defactinib -0.015 | [7] -0.015 | encorafenib -0.01 | [8] 0.057 | alisertib -0.002 | [9] 0.016 | gefitinib 0.005

SRP19 (UniProt P09132)
inactive: vemurafenib 0 | [1] -0.002 | barasertib 0.131 | [2] -0.013 | volasertib -0.058 | [3] 0.01 | [4] -0.127 | [5] 0.006 | saracatinib -0.04 | sotrastaurin -0.001 | alvocidib -0.043 | Tubastatin A -0.013 | [6] 0.059 | defactinib 0.034 | [7] -0.087 | encorafenib 0.034 | [8] -0.099 | alisertib 0.023 | [9] 0.006 | gefitinib -0.003

Fetched one by one from the list above, two records:
SPTBN2 (UniProt O15020)
inactive: vemurafenib 0.001 | [1] -0.001 | barasertib 0.032 | [2] -0.008 | volasertib -0.015 | [3] 0.033 | [4] -0.044 | [5] 0.03 | saracatinib 0.002 | sotrastaurin -0.013 | alvocidib 0.019 | Tubastatin A -0.054 | [6] -0.01 | defactinib -0.004 | [7] -0.041 | encorafenib 0.003 | [8] 0.036 | alisertib -0.003 | [9] 0.023 | gefitinib -0.024

SRP19 (UniProt P09132)
inactive: vemurafenib 0 | [1] -0.002 | barasertib 0.131 | [2] -0.013 | volasertib -0.058 | [3] 0.01 | [4] -0.127 | [5] 0.006 | saracatinib -0.04 | sotrastaurin -0.001 | alvocidib -0.043 | Tubastatin A -0.013 | [6] 0.059 | defactinib 0.034 | [7] -0.087 | encorafenib 0.034 | [8] -0.099 | alisertib 0.023 | [9] 0.006 | gefitinib -0.003

Remaining list, next part:

SPPL2B (UniProt Q8TCT7)
inactive: vemurafenib 0.109 | [1] 0.045 | barasertib 0.069 | [2] 0.011 | volasertib 0.022 | [3] -0.046 | [4] -0.096 | [5] 0.022 | saracatinib 0.023 | sotrastaurin 0.022 | alvocidib -0.041 | Tubastatin A -0.05 | [6] 0.067 | defactinib -0.006 | [7] -0.053 | encorafenib 0.016 | [8] -0.061 | alisertib 0.019 | [9] -0.008 | gefitinib -0.028

SRM (UniProt P19623)
inactive: vemurafenib -0.004 | [1] -0.003 | barasertib -0.008 | [2] -0.02 | volasertib -0.034 | [3] -0.001 | [4] 0.015 | [5] 0 | saracatinib 0.02 | sotrastaurin 0.011 | alvocidib 0.008 | Tubastatin A -0.014 | [6] -0.014 | defactinib -0.03 | [7] -0.03 | encorafenib -0.011 | [8] 0.083 | alisertib -0.03 | [9] 0.016 | gefitinib 0.011

SSR1 (UniProt P43307)
inactive: vemurafenib -0.012 | [1] -0.026 | barasertib -0.051 | [2] 0.021 | volasertib 0.004 | [3] -0.03 | [4] -0.1 | [5] 0.054 | saracatinib 0.024 | sotrastaurin 0.039 | alvocidib -0.027 | Tubastatin A 0.029 | [6] -0.025 | defactinib 0.022 | [7] 0.03 | encorafenib -0.004 | [8] -0.011 | alisertib 0.066 | [9] -0.007 | gefitinib 0.013

SPCS2 (UniProt Q15005)
inactive: vemurafenib 0.018 | [1] 0.003 | barasertib 0.009 | [2] -0.005 | volasertib -0.01 | [3] 0.032 | [4] 0.12 | [5] -0.156 | saracatinib -0.005 | sotrastaurin -0.007 | alvocidib 0.048 | Tubastatin A -0.009 | [6] 0.012 | defactinib 0.038 | [7] -0.075 | encorafenib -0.015 | [8] -0.006 | alisertib -0.013 | [9] 0.017 | gefitinib 0.03

STAT6 (UniProt P42226)
inactive: vemurafenib 0.021 | [1] 0.018 | barasertib 0.011 | [2] -0.005 | volasertib -0.022 | [3] -0.031 | [4] -0.002 | [5] -0.024 | saracatinib 0.009 | sotrastaurin 0.025 | alvocidib -0.051 | Tubastatin A 0.004 | [6] 0.008 | defactinib -0.032 | [7] 0.139 | encorafenib 0.033 | [8] 0.014 | alisertib -0.033 | [9] -0.014 | gefitinib -0.011

SPEN (UniProt Q96T58)
inactive: vemurafenib 0.021 | [1] 0.046 | barasertib -0.073 | [2] 0.019 | volasertib -0.036 | [3] -0.003 | [4] -0.227 | [5] 0.087 | saracatinib -0.026 | sotrastaurin 0.066 | alvocidib -0.057 | Tubastatin A -0.028 | [6] 0.045 | defactinib -0.017 | [7] -0.025 | encorafenib 0.067 | [8] -0.025 | alisertib 0.086 | [9] -0.033 | gefitinib -0.015

STAT3 isoform 3 (UniProt P40763)
inactive: vemurafenib -0.077 | [1] -0.032 | barasertib -0.049 | [2] -0.004 | volasertib -0.045 | [3] 0.01 | [4] 0.024 | [5] 0.003 | saracatinib 0.004 | sotrastaurin -0.044 | alvocidib 0.032 | Tubastatin A 0 | [6] -0.237 | defactinib -0.02 | [7] 0.044 | encorafenib 0.044 | [8] 0.11 | alisertib 0.039 | [9] 0.068 | gefitinib -0.096

SRSF7 (UniProt Q16629)
inactive: vemurafenib 0.012 | [1] 0.03 | barasertib -0.057 | [2] -0.007 | volasertib 0.012 | [3] 0.017 | [4] -0.034 | [5] 0.193 | saracatinib -0.008 | sotrastaurin 0.028 | alvocidib -0.2 | Tubastatin A -0.005 | [6] -0.057 | defactinib -0.06 | [7] 0.051 | encorafenib 0.032 | [8] 0.049 | alisertib 0.006 | [9] 0.038 | gefitinib 0.067

Reference: the supplement of paper PMC10849652
